Article doi:10.1101/2025.07.04.663055

The chains behind the UniProt entries cited, without tags or fusion partners.
UniProt O14579: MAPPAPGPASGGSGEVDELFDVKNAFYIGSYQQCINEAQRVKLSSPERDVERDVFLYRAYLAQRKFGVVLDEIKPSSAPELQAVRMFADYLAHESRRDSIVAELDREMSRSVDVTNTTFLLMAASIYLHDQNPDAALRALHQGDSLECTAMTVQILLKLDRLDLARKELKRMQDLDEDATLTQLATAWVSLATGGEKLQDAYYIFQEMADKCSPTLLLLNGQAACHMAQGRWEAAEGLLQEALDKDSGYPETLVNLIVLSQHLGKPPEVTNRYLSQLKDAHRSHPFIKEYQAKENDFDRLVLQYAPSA

B1: HSD17B12 (protein, UniProt Q53GQ0 1-312)
chain: MESALPAAGFLYWVGAGTVAYLALRISYSLFTALRVWGVGNEAGVGPGLGEWAVVTGSTDGIGKSYAEELAKHGMKVVLISRSKDKLDQVSSEIKEKFKVETRTIAVDFASEDIYDKIKTGLAGLEIGILVNNVGMSYEYPEYFLDVPDLDNVIKKMININILSVCKMTQLVLPGMVERSKGAILNISSGSGMLPVPLLTIYSATKTFVDFFSQCLHEEYRSKGVFVQSVLPYFVATKLAKIRKPTLDKPSPETFVKSAIKTVGLQSRTNGYLIHALMGSIISNLPSWIYLKIVMNMNKSTRAHYLKKTKKN
B2: UGT8 (protein, UniProt Q16880 21-541)
chain: AKIIIVPPIMFESHMYIFKTLASALHERGHHTVFLLSEGRDIAPSNHYSLQRYPGIFNSTTSDAFLQSKMRNIFSGRLTAIELFDILDHYTKNCDLMVGNHALIQGLKKEKFDLLLVDPNDMCGFVIAHLLGVKYAVFSTGLWYPAEVGAPAPLAYVPEFNSLLTDRMNLLQRMKNTGVYLISRLGVSFLVLPKYERIMQKYNLLPEKSMYDLVHGSSLWMLCTDVALEFPRPTLPNVVYVGGILTKPASPLPEDLQRWVNGANEHGFVLVSFGAGVKYLSEDIANKLAGALGRLPQKVIWRFSGPKPKNLGNNTKLIEWLPQNDLLGHSKIKAFLSHGGLNSIFETIYHGVPVVGIPLFGDHYDTMTRVQAKGMGILLEWKTVTEKELYEALVKVINNPSYRQRAQKLSEIHKDQPGHPVNRTIYWIDYIIRHNGAHHLRAAVHQISFCQYFLLDIAFVLLLGAALLYFLLSWVTKFIYRKIKSLWSRNKHSTVNGHYHNGILNGKYKRNGHIKHEKKVK
B3: TMEM41B (protein, UniProt Q5BJD5 1-291)
chain: MAKGRVAERSQLGAHHTTPVGDGAAGTRGLAAPGSRDHQKEKSWVEAGSARMSLLILVSIFLSAAFVMFLVYKNFPQLSEEERVNMKVPRDMDDAKALGKVLSKYKDTFYVQVLVAYFATYIFLQTFAIPGSIFLSILSGFLYPFPLALFLVCLCSGLGASFCYMLSYLVGRPVVYKYLTEKAVKWSQQVERHREHLINYIIFLRITPFLPNWFINITSPVINVPLKVFFIGTFLGVAPPSFVAIKAGTTLYQLTTAGEAVSWNSIFILMILAVLSILPAIFQKKLKQKFE

What follows are binders tested against GFP-εCOPI (UniProt O14579) (assay: affinity purification with mass spectrometry).

binding | Binder
binds | B1
binds | B2
binds | B3

Results are given in words; binding and its absence hold for the method and conditions named. Binding seen in cells or lysates may run through a third protein. Here binding means that the protein was enriched with, or labelled near, the bait; the list need not be complete.
